Results from US20120122958.

The chains behind the UniProt entries cited, without tags or fusion partners.
UniProt Q6NUN9, whole entry C571A: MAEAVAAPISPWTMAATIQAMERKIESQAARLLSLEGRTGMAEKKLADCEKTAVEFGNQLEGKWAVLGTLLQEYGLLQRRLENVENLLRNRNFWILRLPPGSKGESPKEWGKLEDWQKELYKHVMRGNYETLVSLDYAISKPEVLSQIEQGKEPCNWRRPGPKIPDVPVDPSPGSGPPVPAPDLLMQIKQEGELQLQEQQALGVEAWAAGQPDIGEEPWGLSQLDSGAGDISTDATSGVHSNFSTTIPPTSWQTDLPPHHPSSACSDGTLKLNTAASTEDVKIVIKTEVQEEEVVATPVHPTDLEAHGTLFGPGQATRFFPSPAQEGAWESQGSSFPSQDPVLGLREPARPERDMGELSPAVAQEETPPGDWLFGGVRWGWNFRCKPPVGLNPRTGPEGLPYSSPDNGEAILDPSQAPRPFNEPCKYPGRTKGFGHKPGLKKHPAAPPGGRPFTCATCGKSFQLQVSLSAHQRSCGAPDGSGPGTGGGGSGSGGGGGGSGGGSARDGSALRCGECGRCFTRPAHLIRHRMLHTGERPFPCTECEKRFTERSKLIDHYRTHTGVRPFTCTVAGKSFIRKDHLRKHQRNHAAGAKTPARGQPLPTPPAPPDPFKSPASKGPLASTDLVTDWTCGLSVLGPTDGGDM

Biological target: PARIS C571A (Homo sapiens) (UniProt Q6NUN9)
Experiment: EMSA
Settings: substantially reduced binding; purified recombinant protein; protein details: GST; label: 32P

Binding result, binds more weakly:
GCCACTTGCTTGTTTTGGAAGGAAAAT (double strand) [IRS3-WT]
AGTGTGTTGGTATTTTTCCCTCAGTTC (double strand) [IRS1-WT]
ACATACAGGCTATTTTGTTGATTAAAC (double strand) [IRS2-WT]

Weaker means in comparison with the reference protein, sequence or condition of that experiment.
